No constants are given. Whether binding was seen depends on the method and setting. Binding seen in cells or lysates may run through a third protein. Some binding calls cover weakened binding; strength is not graded here. Tags and fused reporters may be left off the sequences shown.
Assays:
[1] = target: HA-tagged C terminus of α-actinin-1 (HA-α-actinin-1-C; aa 406-892) (human) (UniProt P12814); assay: co-immunoprecipitation with anti-FLAG mAb from co-transfected HEK293 cells, Western blot
[2] = target: HA-tagged C terminus of α-actinin-1 (HA-α-actinin-1-C; aa 406-892) (human) (UniProt P12814); assay: co-immunoprecipitation with anti-FLAG mAb from co-transfected HEK293 cells, Western blot with HA mAb
[3] = target: T1, T7-tagged DIL domain (aa 606-983) of afadin (UniProt O35889); assay: co-immunoprecipitation with anti-FLAG mAb from transfected HEK293 cells, Western blot
T1 sequence (looked up): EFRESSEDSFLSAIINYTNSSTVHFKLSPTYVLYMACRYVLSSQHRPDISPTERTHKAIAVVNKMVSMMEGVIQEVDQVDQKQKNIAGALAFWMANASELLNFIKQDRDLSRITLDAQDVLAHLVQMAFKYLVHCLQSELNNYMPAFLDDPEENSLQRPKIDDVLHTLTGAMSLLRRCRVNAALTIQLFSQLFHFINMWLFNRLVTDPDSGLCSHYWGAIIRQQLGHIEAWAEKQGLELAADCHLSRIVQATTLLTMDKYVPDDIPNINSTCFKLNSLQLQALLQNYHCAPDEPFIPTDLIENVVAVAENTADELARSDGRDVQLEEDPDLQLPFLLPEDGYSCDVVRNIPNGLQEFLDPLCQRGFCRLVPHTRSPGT

Sequences of proteins named here, by UniProt entry; tags and fusion partners are left off. Residues count along the entry.
UniProt P12814, residues 406-892: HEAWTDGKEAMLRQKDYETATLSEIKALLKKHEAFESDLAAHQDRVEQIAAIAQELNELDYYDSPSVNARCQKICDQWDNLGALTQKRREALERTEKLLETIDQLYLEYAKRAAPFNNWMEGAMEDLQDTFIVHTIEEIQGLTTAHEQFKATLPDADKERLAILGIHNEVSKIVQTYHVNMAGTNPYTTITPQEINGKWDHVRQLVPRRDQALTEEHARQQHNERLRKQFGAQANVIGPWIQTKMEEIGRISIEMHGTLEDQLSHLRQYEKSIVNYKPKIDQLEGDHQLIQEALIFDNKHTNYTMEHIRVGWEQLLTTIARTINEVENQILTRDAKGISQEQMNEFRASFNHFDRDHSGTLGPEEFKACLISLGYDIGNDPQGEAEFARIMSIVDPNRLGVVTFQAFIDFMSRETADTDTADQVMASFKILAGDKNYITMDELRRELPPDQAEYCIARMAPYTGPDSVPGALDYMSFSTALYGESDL

B1: FLAG-tagged mADIP-M (FLAG-mADIP-M; aa 152-436) (protein, not shown: small tags and cut ends)
chain: MIGLQERDRQLQCKNRSLHQLLKNEKDEVQKLQNIIASRATQYNHDVKRKEREYNKLKERLHQLVMNKKDKNIAMDVLNYVGRADGKRGSWRTDKTEARNEDEMYKILLNDYEYRQKQILMENAELKKVLQQMKKEMISLLSPQKKKPRERAEDGTGTVAISDIEDDSGELSRDSVWGLSCDTVREQLTNSIRKQWRILKSHVEKLDNQASKVHSEGLNEEDVISRQDHEQETEKLELEIERCKEMIKAQQQLLQQQLATTCDDDTTSLLRDCYLLEEKERLKEE
binding [1]: binds
binding [2]: binds

B2: FLAG-tagged mADIP-C (aa 339-615) (protein, not shown: small tags and cut ends)
chain: LTNSIRKQWRILKSHVEKLDNQASKVHSEGLNEEDVISRQDHEQETEKLELEIERCKEMIKAQQQLLQQQLATTCDDDTTSLLRDCYLLEEKERLKEEWTLFKEQKKNFERERRSFTEAAIRLGLERKAFEEERASWVKQQFLNMTNFDHQNSENVKLFSAFSGSSDPDNLIVHSRPRQKKLHSVANGVPACTSKLTKSLPASPSTSDFRQTHSCVSEHSSISVLNITPEESKPSEVARESTDQKWSVQSRPSSREGCYSGCSSAFRSAHGDRDDLP
binding [3]: binds

Source: patent US20060160092A1
